Reference: publication PMC5744018
Results are given in words; binding and its absence hold for the method and conditions named. For some assays here: Binding seen in cells or lysates may run through a third protein. Some entries that bind do so weakly or less than the wild type. Sequences can lack the tags named with a protein.

T1: ANK6 (amino acid residues 21-174) fused to the GAL4 DNA-binding domain (Arabidopsis thaliana) (UniProt Q9FNP4)
T1 sequence: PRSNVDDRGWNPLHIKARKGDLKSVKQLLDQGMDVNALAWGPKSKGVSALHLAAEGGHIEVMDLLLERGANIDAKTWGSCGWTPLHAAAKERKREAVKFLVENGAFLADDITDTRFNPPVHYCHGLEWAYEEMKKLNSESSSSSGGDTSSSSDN

T2: full-length ANK6 fused to N-terminal Venus (ANK6-Venus^N) (Arabidopsis thaliana) (UniProt Q9FNP4)
T2 sequence: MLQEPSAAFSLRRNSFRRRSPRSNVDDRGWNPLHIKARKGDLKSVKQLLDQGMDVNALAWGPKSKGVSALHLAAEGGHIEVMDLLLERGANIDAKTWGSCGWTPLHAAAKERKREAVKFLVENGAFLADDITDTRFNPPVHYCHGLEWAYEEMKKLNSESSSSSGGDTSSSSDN

B1: full-length RPS9M fused to the GAL4 activation domain (protein, UniProt Q8L6Z4 1-430)
chain: MLSRLFLRHSNLRFVTLVSSKSNSQIFSSFIRPLSTNSSGGGGNGDGNGRNRNDVPWSFTGVNDDKSGPFSSDDSFGSSGVAGSGLPGGEGKWPEEPKRWNIKEEEEKVVFDTGGEVGQGIETSRERRGNEWEETKRWDMKEGEEKVVFGGGGDEVDGFGIRGEVKSNEWDVSKPWNLKEEEEGVVFDTGGEVPFSFENSLEMAEEERVKKELIEKEEKELLEVIKGPDRAFGDLIAKSGITDEMLDSLIALKDFQGVEGLPPLTEIENLRREKSSKKSSRAEIELQMQEDIAKARVRQVDETGRAYGTGRRKCSIARVWIQPGEGKFQVNEKEFDVYFPMLDHRAALLRPLAETKTLGRWDIKCTVKGGGTTGQVGAIQLGISRALQNWEPDMRTSLRAAGFLTRDSRVVERKKPGKAKARKSFQWVKR
B2: full-length RPS9M fused to C-terminal CFP (RPS9M-CFP^C) (protein, UniProt Q8L6Z4 35-430)
chain: STNSSGGGGNGDGNGRNRNDVPWSFTGVNDDKSGPFSSDDSFGSSGVAGSGLPGGEGKWPEEPKRWNIKEEEEKVVFDTGGEVGQGIETSRERRGNEWEETKRWDMKEGEEKVVFGGGGDEVDGFGIRGEVKSNEWDVSKPWNLKEEEEGVVFDTGGEVPFSFENSLEMAEEERVKKELIEKEEKELLEVIKGPDRAFGDLIAKSGITDEMLDSLIALKDFQGVEGLPPLTEIENLRREKSSKKSSRAEIELQMQEDIAKARVRQVDETGRAYGTGRRKCSIARVWIQPGEGKFQVNEKEFDVYFPMLDHRAALLRPLAETKTLGRWDIKCTVKGGGTTGQVGAIQLGISRALQNWEPDMRTSLRAAGFLTRDSRVVERKKPGKAKARKSFQWVKR

How the values were obtained:
[1] = biological target: T1, ANK6 (amino acid residues 21-174) fused to the GAL4 DNA-binding domain (Arabidopsis thaliana); assay: two-hybrid; directed test; AH109 cotransformed with pGADT7 (RPS9M CDS and truncated variants) and pGBKT7 (ANK6) constructs; growth on SD-LWHA, 30°C, 2-3 days
[2] = biological target: T2, full-length ANK6 fused to N-terminal Venus (ANK6-Venus^N) (Arabidopsis thaliana); assay: split reporter; BiFC in mesophyll protoplasts of Arabidopsis rosette leaves; RPS9M-CFP^C with ANK6-Venus^N; MitoTracker to mark mitochondria

Binder | binding [1] | binding [2]
B1 | binds | 
B2 |  | binds
